Test: in vivo
Settings: mouse, iv
Experimental: Male CD1 mice from Charles River, weighing 25 g, are used. Compounds are administered intravenously (i.v.), dissolved in dimethylsulfoxide, and the volume of administration is 0.01 ml/10 g of body weight. The lethal dose, LD50 after seven days, is calculated according to the method of Litchfield and Wilcoxon (Exp. Ther. 96, 99 (1949)).

COC(=O)C1=C(C)NC(C)=C(C(=O)OC)C1c1ccccc1[N+](=O)[O-] [Nifedipine, reference compound]
LD50 at 168 h: 10.8 mg/kg

From US4508719A, “Hydroxyimino and alkoxyimino derivatives of 1,4-dihydropyridine and anti-hypertensive compositions” (Pierrel S.p.A., priority 1982, dated 1985)
